In paper PMC3630169 one finds binding data, which are given here for one substance.

The chains behind the UniProt entries cited, without tags or fusion partners. Residues count along the entry.
UniProt P08603, residues 1107-1231: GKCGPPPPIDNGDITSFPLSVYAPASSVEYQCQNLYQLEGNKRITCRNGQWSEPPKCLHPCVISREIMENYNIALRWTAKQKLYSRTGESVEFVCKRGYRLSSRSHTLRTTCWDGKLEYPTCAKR
UniProt P01024, residues 996-1287: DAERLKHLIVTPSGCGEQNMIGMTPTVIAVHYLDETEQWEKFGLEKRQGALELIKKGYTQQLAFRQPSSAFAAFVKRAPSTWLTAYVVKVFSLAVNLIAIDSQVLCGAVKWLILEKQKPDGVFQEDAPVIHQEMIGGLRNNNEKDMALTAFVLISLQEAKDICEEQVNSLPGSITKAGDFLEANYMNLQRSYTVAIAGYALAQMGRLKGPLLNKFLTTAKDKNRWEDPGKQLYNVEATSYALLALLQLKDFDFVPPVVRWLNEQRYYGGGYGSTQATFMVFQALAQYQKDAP

These are yes or no findings as the source states them, for the method shown. Some results given as binding are weak or reduced against the parent protein; the word gives no strength.

Assay [1] concerns the target wild type FH19-20 (recombinant fragment of factor H domains 19–20) (human) (UniProt P08603). Put plainly: radioligand binding; solid phase OspE or FhbA, ^125I-FH19-20 with increasing concentrations of C3d, heparin or unlabelled FH19-20; 37°C, 60 min, PBS; both purified.
Assay [2] has the same target. Put plainly: radioligand binding; solid phase Tuf, ^125I-FH19-20 with increasing concentrations of C3d, heparin or unlabelled FH19-20; blocking and washing in 50% PBS; 37°C, 60 min; both purified.

Turning to “C3d (from UniProt P01024) (domain or fragment)”, the binding entry in assay [1] and in assay [2] was “binds” throughout.
